Laboratory results from PubChem BioAssay AID1671190 (National Center for Advancing Translational Sciences (NCATS), 2021).
Among all 580,000 compounds or so, about 6,100 (1.1%) were called active. The inconclusive results got no clear call from the source; some entries with a clear call stand among them for comparison. Calls come from the whole dose curve; as a rule, active = well fitted inhibition curve with a large enough effect; inconclusive = small, poorly fitted or top-dose-only effect, or another doubt; inactive = no such curve, though single readings can be large or run the other way. Where the call is inconclusive, the potency comes from a doubtful curve fit. Some compounds were tested as several samples or in several runs, with calls that do not always agree.

The chains behind the UniProt entries cited, without tags or fusion partners. Where a name states a change or a piece, a line headed by the entry shows the natural chain unless it says otherwise.
UniProt P18054: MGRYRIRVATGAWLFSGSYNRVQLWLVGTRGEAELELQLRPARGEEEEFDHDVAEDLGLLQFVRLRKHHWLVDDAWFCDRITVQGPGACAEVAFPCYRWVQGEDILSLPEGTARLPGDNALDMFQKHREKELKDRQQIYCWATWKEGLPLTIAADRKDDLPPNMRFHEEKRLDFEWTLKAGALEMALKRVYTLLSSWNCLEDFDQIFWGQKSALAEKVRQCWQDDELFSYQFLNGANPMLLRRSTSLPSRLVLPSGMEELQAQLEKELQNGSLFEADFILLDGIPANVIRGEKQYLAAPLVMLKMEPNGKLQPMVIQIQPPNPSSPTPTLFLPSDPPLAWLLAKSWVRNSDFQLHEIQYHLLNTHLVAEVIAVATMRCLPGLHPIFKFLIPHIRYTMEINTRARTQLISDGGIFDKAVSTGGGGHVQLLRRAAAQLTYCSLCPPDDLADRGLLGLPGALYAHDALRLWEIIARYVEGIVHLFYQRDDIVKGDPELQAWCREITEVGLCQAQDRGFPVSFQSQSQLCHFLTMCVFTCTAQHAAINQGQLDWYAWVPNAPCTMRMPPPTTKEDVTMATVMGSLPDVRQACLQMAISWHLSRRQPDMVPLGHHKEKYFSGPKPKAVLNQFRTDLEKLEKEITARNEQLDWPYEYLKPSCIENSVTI

Molecular target: Polyunsaturated fatty acid lipoxygenase ALOX12 (Homo sapiens) (UniProt P18054)
Experiment: Primary qHTS assay for inhibitors of human arachidonate 12S-lipoxygenase (ALOX12): Round 2
Conditions: purified 12hLO, xylenol orange hydroperoxide absorbance; activity change, negative = inhibition: at 108 µM (top of the series) unless noted
Outline: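 Purified human 12hLO (150 nM final) in 25 mM Hepes, 0.01% Triton X-100, pH 7.0 was preincubated 15 min at room temperature with compound. Then 40 uM arachidonic acid was added, 30 min. Hydroperoxide was read by Fe-XO absorbance ratio 573/405 nm.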
% is set by controls: 0 for no effect and ±100 for the full control effect; potency is the fitted concentration of half-maximal effect.

Compound | Potency | activity change, negative = inhibition
N#Cc1c(NC(=O)CSc2nc3c(c(C(F)(F)F)n2)CCc2ccccc2-3)sc2c1CCCC2 | inconclusive: 39.8 µM [inhibitor, partial curve] | –
O=C(CSc1n[nH]c(-c2ccccc2)n1)Nc1ccc(N2CCOCC2)cc1 | – | inactive: -22.9%
CC(=O)c1cc(-c2ccccc2)n(CCC(=O)NC2CCCCC2)c1C | inactive | –
Cc1cccc([C@@H]2[C@@H]3C(=O)N(Cc4ccccc4)C(=O)[C@@H]3[C@]3(C)C(=O)N(c4cccc(Cl)c4)C(=O)N23)c1 | – | inactive: -11.3%
CC12CN3CC(c4ccccc4)(CN(C1)C3c1ccc(Cl)cc1)C2=O (stereo not drawn) | inconclusive: 50.1 µM [inhibitor, partial curve, poor fit] | –
CN1CCN(C(=O)/C(=C/c2cn(C)c3ccccc23)NC(=O)c2ccccc2)CC1 | inconclusive: 28.2 µM [inhibitor, partial curve] | –
CCc1ccc(C2=C(C)C(=NCC(=O)Nc3cccc(Cl)c3C)NS2(=O)=O)cc1 | – | inactive: -36.9%
O=C(NCC1CCCCN1)c1cc(OCC(F)(F)F)ccc1OCC(F)(F)F (stereo not drawn) | active: 1.53 µM | –
CCOc1ccccc1N(CC(=O)NC1CCCC1)S(=O)(=O)c1ccc(C)cc1 | inconclusive: 126 µM [inhibitor, single point] | –
Cc1ccc(C(=O)NCC(=O)OCC(=O)Nc2cc(S(=O)(=O)N3CCOCC3)ccc2C)cc1 | – | inactive: -6.35%
Cc1onc(-c2c(F)cccc2Cl)c1C(=O)O/N=C(\N)c1ccc([N+](=O)[O-])o1 | inconclusive: 28.2 µM [inhibitor, full curve, poor fit] | –
COCC(=O)N[C@H]1C[C@H]2C(=O)Nc3ccc(-c4ccsc4)cc3C(=O)N2C1 | inconclusive: 39.8 µM [inhibitor, single point] | –
CCCOc1ccc(NC(=O)CNC(=O)c2cc(OC)cc(OC)c2)cc1OCCC | inconclusive: 112 µM [inhibitor, single point] | –
Clc1ccccc1-c1nnc(SCc2nc(-c3ccccc3)no2)n1-c1ccccc1 | inconclusive: 141 µM [inhibitor, partial curve, poor fit] | –
Cc1nnc(NC(=O)C(C)Oc2ccc3c(C)cc(=O)oc3c2)s1 (stereo not drawn) | inconclusive: 25.1 µM [inhibitor, partial curve, poor fit] | –
NC(N)=NCc1ccc(F)cc1 | inconclusive: 0.398 µM [inhibitor, full curve, poor fit] | –
COC(=O)C[C@H]1C[C@H]2c3cc(NS(=O)(=O)c4ccc(OC)cc4)ccc3O[C@H]2[C@H](CO)O1 | inconclusive: 141 µM [inhibitor, single point] | –
O=C1C(=Cc2ccc(Cl)cc2)CCc2ccccc21 | – | inactive: 8.72%
COc1ccc(Cn2c(CCC(=O)Nc3ccc(OC)c(Cl)c3)nc3cccnc32)cc1 | inconclusive: 63.1 µM [inhibitor, partial curve, poor fit] | –
COCCNC(=O)NC(=O)CSc1nc(C)c(C)c(C)n1 | – | inactive: 5.2%
COc1ccc(Nc2nc(NN)nc(C)c2[N+](=O)[O-])cc1 | inconclusive: 178 µM [inhibitor, single point] | –
Cc1ccc(-c2nn(-c3ccccc3)c(-c3ccc(C)cc3)c2C)cc1 | – | inactive: -25.6%

Compound | Potency | activity change, negative = inhibition
O=C1NC[C@H]2CN(Cc3ccc(C(F)(F)F)cc3)CCN12 | – | inactive: 10.2% [at 176 µM]
CN(C)C(=S)Nc1nc2ccccc2s1 | inconclusive: 44.7 µM [inhibitor, partial curve, poor fit] | –
O=S(=O)(Nc1nccs1)c1ccc(Br)cc1 | inconclusive: 126 µM [inhibitor, single point] | –
COc1ccc(C(C)(NC(C)=O)c2nc(-c3cccc4cccnc34)cs2)cc1 (stereo not drawn) | inconclusive: 0.282 µM [inhibitor, full curve, poor fit] | –
COc1ccc(C2Nc3ccccc3C(=O)N2Cc2ccco2)cc1COc1ccc([N+](=O)[O-])cc1 (stereo not drawn) | inconclusive: 56.2 µM [inhibitor, partial curve, poor fit] | –
CC(C)(C)C1C/C(=C/c2ccco2)C(=O)/C(=C/c2ccco2)C1 (stereo not drawn) | active: 39.8 µM | –
Cn1cc(C(NC(=O)c2cnc(N)nc2-c2ccccc2)C2CC(O)C2)cn1 (stereo not drawn) | – | inactive: 21.4%
COc1cccc(NC(=O)CSC2=Nc3ccccc3C3=NC(CC(=O)NCc4ccccc4OC)C(=O)N23)c1 (stereo not drawn) | inconclusive: 15.8 µM [inhibitor, full curve, poor fit] | –
BrCC1CCCNC1 (stereo not drawn) | inconclusive: 56.2 µM [inhibitor, single point] | –
C/C(=N/NC(=S)NC(C)C)c1ccc(Cl)cc1Cl | inconclusive: 20 µM [inhibitor, partial curve, poor fit] | –
Cc1ccc(CNC(=O)c2c[nH]n3c(=O)c(Cc4ccc(F)cc4Cl)c(C)nc23)cc1 | – | inactive: 1.37%
Oc1ccc(Cl)cc1CNCc1ccc(F)c(F)c1 | inconclusive: 44.7 µM [inhibitor, partial curve, poor fit] | –
COc1ccc(N2Cc3cccc(C(=O)Nc4cccc(F)c4)c3C2=O)cc1 | inconclusive: 50.1 µM [inhibitor, partial curve, poor fit] | –
COc1ccccc1C(=O)Nc1nc(C)c(C(=O)N(C)C)s1 | – | inactive: 8.06%
COc1ccc(NC(=O)/C=C/c2ccc3ccccc3n2)c(OC)c1 | – | inactive: 1.64%
Clc1ccsc1-c1ccc2ccccc2n1 | inconclusive: 44.7 µM [inhibitor, partial curve, poor fit] | –
O=C(CNC(=O)c1ccc2c(c1)OCO2)N/N=C/c1cc(Br)ccc1O | – | inactive: 9.21%
O=C1Nc2ccc(Br)cc2C(=O)N2CCN(C(=O)c3cccnc3)C[C@H]12 | inconclusive: 28.2 µM [inhibitor, full curve, poor fit] | –
COc1ccc(CN2C(=O)Cc3c2nc(N)c2c(N)nc(N4CCOCC4)c(C#N)c32)cc1 | inconclusive: 3.98 µM [inhibitor, full curve, poor fit] | –
CN1CCN(C(c2cccs2)c2nnnn2Cc2ccc(F)cc2)CC1 (stereo not drawn) | – | inactive: -16.2%
CCN1CCN(c2ccc(NC(=O)COc3ccc(Cl)cc3C)cc2)CC1 | inconclusive: 70.8 µM [inhibitor, single point] | –

Arranged by molecular weight (descending): three of the compounds above.
Compound | Potency | activity change, negative = inhibition
COc1cccc(NC(=O)CSC2=Nc3ccccc3C3=NC(CC(=O)NCc4ccccc4OC)C(=O)N23)c1 (stereo not drawn) | inconclusive: 15.8 µM [inhibitor, full curve, poor fit] | –
O=C1Nc2ccc(Br)cc2C(=O)N2CCN(C(=O)c3cccnc3)C[C@H]12 | inconclusive: 28.2 µM [inhibitor, full curve, poor fit] | –
CN(C)C(=S)Nc1nc2ccccc2s1 | inconclusive: 44.7 µM [inhibitor, partial curve, poor fit] | –
